± gives the standard deviation of the averaged measurements. Only a part is listed here, and it is no random draw. Most entries show no effect beyond the scatter of the controls.

Sequences of proteins named here, by UniProt entry; tags and fusion partners are left off. A change or cut given only in a name is not applied to a line headed by its entry.
UniProt Q7Z6B0: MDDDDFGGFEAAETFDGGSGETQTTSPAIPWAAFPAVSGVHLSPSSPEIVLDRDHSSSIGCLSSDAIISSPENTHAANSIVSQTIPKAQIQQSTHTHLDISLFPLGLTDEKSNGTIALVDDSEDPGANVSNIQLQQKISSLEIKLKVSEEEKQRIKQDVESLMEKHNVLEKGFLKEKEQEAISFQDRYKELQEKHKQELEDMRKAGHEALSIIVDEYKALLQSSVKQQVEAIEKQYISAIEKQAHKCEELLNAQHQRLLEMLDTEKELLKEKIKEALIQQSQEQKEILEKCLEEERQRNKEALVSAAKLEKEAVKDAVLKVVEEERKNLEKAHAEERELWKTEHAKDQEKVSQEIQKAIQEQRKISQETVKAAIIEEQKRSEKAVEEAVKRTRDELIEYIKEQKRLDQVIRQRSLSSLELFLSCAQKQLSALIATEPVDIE
UniProt Q86X02: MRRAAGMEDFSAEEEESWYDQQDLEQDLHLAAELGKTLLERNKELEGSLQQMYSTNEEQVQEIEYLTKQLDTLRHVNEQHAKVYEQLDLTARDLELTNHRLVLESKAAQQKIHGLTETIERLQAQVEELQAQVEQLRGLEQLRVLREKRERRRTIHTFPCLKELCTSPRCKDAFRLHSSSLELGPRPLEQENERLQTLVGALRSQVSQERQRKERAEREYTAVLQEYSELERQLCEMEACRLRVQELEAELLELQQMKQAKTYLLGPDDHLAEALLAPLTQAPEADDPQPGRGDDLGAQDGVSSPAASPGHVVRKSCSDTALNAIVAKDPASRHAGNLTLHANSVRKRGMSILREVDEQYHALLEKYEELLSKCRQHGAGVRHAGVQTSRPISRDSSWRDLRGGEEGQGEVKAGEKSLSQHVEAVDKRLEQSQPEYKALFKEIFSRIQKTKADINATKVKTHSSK
UniProt Q6PI78: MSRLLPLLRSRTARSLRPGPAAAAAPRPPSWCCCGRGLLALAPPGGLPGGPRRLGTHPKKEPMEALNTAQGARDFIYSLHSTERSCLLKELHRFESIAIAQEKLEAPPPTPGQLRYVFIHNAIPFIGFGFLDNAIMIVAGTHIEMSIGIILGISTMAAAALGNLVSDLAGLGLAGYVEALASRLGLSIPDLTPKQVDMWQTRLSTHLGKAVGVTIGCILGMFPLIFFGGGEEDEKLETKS
UniProt Q86U28: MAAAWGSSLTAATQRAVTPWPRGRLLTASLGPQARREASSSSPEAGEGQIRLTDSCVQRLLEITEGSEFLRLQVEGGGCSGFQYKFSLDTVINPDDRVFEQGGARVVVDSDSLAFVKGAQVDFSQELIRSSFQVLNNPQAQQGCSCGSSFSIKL
UniProt Q8IU85: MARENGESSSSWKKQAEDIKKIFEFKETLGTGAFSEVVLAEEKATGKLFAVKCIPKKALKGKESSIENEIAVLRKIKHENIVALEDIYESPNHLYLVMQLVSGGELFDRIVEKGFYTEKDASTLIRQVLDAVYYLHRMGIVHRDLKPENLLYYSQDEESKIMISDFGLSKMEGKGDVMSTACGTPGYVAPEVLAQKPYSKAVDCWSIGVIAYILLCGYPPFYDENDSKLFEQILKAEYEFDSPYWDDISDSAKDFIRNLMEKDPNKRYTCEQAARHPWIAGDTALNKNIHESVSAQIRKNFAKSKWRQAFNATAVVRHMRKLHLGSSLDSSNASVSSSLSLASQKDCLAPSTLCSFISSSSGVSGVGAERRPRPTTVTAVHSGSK
UniProt Q7Z3E2: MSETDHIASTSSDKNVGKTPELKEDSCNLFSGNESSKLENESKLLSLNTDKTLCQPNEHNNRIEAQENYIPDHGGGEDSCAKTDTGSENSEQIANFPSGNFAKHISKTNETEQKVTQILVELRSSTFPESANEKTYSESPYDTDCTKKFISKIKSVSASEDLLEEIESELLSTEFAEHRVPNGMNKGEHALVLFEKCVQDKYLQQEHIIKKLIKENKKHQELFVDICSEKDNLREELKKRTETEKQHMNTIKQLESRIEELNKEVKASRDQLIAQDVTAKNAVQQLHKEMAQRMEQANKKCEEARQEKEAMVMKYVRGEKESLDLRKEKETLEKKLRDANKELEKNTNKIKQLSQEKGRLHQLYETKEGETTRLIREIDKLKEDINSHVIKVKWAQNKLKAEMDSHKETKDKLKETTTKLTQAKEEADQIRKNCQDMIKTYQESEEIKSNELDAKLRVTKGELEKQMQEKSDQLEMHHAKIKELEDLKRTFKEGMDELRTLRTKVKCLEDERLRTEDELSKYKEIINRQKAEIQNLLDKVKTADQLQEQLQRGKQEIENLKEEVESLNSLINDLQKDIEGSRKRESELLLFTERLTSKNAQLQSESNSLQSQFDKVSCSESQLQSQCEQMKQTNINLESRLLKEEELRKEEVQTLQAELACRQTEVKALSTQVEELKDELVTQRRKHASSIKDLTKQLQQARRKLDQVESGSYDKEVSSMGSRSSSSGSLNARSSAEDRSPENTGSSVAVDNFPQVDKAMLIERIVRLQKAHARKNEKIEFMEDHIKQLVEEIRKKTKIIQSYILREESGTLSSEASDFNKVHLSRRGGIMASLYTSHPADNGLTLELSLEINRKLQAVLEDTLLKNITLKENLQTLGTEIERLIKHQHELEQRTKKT
UniProt Q6QNY1: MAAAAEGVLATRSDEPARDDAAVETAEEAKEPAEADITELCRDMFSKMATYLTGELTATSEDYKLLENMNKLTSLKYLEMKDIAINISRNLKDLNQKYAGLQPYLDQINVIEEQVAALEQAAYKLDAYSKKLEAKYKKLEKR
UniProt Q86UW6: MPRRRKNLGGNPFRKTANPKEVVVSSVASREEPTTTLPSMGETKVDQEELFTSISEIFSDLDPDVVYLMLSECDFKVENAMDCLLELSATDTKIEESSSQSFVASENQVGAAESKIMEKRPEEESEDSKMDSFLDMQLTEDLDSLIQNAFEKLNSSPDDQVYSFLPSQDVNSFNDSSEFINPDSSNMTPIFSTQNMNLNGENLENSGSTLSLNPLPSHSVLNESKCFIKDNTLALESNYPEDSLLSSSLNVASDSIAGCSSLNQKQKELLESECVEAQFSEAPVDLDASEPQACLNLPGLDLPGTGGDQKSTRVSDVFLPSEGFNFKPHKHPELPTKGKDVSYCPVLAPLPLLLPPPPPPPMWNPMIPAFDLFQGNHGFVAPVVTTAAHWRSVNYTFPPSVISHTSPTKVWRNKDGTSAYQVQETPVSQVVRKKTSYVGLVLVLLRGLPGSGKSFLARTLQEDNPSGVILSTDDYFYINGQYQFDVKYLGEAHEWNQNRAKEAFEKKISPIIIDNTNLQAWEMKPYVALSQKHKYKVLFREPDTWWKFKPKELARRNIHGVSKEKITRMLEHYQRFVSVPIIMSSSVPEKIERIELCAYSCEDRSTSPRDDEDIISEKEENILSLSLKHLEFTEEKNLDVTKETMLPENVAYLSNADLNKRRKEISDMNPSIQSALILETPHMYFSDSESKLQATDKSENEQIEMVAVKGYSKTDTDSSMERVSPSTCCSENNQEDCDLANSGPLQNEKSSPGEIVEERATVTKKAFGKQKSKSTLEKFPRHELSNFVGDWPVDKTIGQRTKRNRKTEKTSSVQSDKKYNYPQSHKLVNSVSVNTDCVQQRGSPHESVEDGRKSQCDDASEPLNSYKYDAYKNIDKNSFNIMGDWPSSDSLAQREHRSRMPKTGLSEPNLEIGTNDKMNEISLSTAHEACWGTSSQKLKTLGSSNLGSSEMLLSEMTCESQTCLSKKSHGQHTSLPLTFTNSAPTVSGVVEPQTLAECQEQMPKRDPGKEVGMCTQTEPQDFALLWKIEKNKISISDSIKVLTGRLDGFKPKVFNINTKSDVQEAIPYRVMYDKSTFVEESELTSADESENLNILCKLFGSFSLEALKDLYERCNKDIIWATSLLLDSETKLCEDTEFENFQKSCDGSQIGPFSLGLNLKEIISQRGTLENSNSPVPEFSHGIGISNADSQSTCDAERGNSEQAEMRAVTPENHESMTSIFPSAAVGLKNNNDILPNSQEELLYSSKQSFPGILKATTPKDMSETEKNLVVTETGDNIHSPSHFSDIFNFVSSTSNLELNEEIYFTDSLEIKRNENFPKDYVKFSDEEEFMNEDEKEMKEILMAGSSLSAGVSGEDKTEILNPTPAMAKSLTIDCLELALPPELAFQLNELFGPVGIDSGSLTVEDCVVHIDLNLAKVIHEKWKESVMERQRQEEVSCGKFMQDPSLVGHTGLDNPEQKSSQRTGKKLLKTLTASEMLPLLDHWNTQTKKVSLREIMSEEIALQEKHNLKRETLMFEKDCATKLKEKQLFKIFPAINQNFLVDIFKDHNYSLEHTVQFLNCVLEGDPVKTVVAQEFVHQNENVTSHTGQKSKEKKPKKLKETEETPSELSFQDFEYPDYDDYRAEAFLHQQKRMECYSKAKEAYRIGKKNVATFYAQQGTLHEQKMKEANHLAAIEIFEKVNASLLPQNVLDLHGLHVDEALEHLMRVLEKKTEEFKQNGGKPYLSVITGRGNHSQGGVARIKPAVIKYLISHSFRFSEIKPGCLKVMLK
UniProt Q86UY8: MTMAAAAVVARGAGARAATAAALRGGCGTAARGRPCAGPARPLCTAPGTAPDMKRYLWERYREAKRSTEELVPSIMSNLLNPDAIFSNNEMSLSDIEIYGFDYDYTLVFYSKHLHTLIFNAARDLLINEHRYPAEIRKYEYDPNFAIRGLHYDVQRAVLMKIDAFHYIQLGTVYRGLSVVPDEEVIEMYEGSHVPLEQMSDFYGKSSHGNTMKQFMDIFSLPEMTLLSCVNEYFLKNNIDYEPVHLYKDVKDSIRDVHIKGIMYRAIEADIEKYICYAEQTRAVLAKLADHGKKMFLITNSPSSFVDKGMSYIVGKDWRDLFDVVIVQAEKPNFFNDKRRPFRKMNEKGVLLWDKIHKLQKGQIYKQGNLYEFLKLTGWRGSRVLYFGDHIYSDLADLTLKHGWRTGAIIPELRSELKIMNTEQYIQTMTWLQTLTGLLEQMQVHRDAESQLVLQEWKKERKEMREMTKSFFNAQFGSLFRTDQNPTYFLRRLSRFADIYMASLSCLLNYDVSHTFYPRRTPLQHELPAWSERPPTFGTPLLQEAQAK
UniProt Q86TU7: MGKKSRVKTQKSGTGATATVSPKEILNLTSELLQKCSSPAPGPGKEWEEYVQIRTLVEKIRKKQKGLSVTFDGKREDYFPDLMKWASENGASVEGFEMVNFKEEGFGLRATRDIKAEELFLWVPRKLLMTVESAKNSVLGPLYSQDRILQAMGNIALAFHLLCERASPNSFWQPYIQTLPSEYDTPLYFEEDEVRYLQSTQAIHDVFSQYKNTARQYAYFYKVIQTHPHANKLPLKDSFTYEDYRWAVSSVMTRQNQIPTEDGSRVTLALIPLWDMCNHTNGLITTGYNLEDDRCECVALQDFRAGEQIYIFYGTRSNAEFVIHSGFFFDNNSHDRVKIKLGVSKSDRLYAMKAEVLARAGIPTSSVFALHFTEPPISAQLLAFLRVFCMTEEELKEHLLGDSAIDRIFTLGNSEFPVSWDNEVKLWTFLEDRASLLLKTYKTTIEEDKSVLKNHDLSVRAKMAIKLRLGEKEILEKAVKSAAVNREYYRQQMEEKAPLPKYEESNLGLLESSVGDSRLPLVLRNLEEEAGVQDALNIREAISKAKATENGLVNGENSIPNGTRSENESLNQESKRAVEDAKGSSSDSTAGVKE
UniProt Q86VN1: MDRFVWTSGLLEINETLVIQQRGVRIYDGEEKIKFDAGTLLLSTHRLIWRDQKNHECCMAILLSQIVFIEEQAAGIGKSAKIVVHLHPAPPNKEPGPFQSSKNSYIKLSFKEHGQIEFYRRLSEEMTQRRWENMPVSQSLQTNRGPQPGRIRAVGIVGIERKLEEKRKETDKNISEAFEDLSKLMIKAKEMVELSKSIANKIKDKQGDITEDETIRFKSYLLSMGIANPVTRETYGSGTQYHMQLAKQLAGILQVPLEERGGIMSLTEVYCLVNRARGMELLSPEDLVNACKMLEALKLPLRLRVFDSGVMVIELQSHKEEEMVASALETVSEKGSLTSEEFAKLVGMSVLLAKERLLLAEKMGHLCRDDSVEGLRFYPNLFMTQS
UniProt Q7Z7K0: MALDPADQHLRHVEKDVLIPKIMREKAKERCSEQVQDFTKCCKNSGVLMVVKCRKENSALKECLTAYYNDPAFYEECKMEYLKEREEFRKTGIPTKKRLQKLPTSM
UniProt Q8IUI8: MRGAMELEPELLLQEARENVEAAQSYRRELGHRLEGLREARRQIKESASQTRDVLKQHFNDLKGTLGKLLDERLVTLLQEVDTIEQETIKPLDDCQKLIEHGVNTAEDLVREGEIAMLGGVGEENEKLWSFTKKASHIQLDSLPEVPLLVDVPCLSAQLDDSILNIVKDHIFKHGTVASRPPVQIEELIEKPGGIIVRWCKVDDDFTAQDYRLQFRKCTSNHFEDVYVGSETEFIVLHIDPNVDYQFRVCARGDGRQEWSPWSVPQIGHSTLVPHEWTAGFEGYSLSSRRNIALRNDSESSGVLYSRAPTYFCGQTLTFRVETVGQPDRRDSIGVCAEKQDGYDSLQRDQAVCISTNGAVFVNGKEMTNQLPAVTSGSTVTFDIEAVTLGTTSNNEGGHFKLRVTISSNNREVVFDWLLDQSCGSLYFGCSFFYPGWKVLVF

Compound in one assay: Nc1ncnc2c1ncn2[C@@H]1O[C@H](COP(=O)(O)OP(=O)(O)OP(=O)(O)O)[C@@H](O)[C@H]1O [adenosine triphosphate]
The experiment in a line: NP40-soluble protein abundance relative to vehicle (solubility fold change) (ratio); higher = more soluble protein in presence of ATP. The following applies: concentration: 0.1mM. In short, it runs like this:
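Values are fold changes against the detergent-processed vehicle, based on vsn-normalised intensities. Jurkat crude lysate was treated at eight concentrations from 0.1 to 10 mM (10 min at room temperature, then 3 min at 37 °C), solubilised with 0.8% NP40 and benzonase, ultracentrifuged and analysed by TMT-labelled LC-MS/MS over three independent experiments.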
As to UniProt Q7KZN9 and related entries, the NP40-soluble protein abundance stood at 1.01 ± 0.16.
Take UniProt Q7Z460-4: the NP40-soluble protein abundance stood at 0.989 ± 0.015.
UniProt Q6V1X1 and related entries: the NP40-soluble protein abundance was 1.06 ± 0.082.
For UniProt Q7L592, the NP40-soluble protein abundance turned out to be 1.05 ± 0.042.
The same measure, in the same setting: to UniProt Q7Z7H8 and related entries belongs 0.991 ± 0.049.
Regarding UniProt Q7Z7G8 and related entries, the NP40-soluble protein abundance was 0.892 ± 0.079.
In the case of UniProt Q7Z3K6 and related entries, the NP40-soluble protein abundance stood at 0.985 ± 0.077.
In the case of UniProt Q7Z6B0 and related entries, the NP40-soluble protein abundance was determined as 0.9832 ± 0.0054.
In the case of CDR2L (UniProt Q86X02), the NP40-soluble protein abundance was found to be 0.969 ± 0.067.
On the same count and under the same terms, to TMEM65 (UniProt Q6PI78) belongs 0.943 ± 0.04.
On the same count and under the same terms, under ISCA2 (UniProt Q86U28) stands 1.03 ± 0.052; under CACUL1 (UniProt Q86Y37), 0.996 ± 0.067.
Still for that read-out and setting: to UniProt Q8IU85 and related entries belongs 1.07 ± 0.082; to UniProt Q7Z3E2, 1 ± 0.063; to BLOC1S2 (UniProt Q6QNY1), 0.888 ± 0.14.
In the case of UniProt Q7Z2Z1 and related entries, the NP40-soluble protein abundance worked out at 0.988 ± 0.14.
For the target UniProt Q7L0J3 and related entries, the NP40-soluble protein abundance amounted to 1.02 ± 0.024.
Consider UniProt Q86UW6 and related entries, for which the NP40-soluble protein abundance is 1.04 ± 0.046.
On to UBE2Q1 (UniProt Q7Z7E8), for which the NP40-soluble protein abundance came out at 1.01 ± 0.048.
The same measure, in the same setting: to NT5DC3 (UniProt Q86UY8) belongs 0.962 ± 0.1.
For SETD3 (UniProt Q86TU7), the NP40-soluble protein abundance was 1.03 ± 0.047.
On the same count and under the same terms, under FASTKD5 (UniProt Q7L8L6) stands 0.972 ± 0.098; under UniProt Q7Z422 and related entries, 0.886 ± 0.1.
On the same count and under the same terms, under “UniProt Q6PJT7-3|Q6PJT7-5|Q6PJT7-9|Q6PJT7” stands 1.057 ± 0.0065; under UniProt Q7Z2W9 and related entries, 1.08 ± 0.17.
The same measure, in the same setting: under UniProt Q86UV5 and related entries stands 1.05 ± 0.06; under UniProt Q8IV53 and related entries, 0.956 ± 0.028.
METTL3 (UniProt Q86U44): the NP40-soluble protein abundance is 1.03 ± 0.059.
For the target DHRS11 (UniProt Q6UWP2), the NP40-soluble protein abundance amounted to 1.03 ± 0.03.
In the case of NUDT18 (UniProt Q6ZVK8), the NP40-soluble protein abundance was 1.04 ± 0.1.
Same read-out and setting: to TSPYL5 (UniProt Q86VY4) belongs 0.967 ± 0.018; to UniProt Q6PJG6, 0.969 ± 0.022; to UniProt Q6PHR2 and related entries, 1.02 ± 0.032.
As for UniProt Q86VN1 and related entries, the NP40-soluble protein abundance worked out at 1.03 ± 0.078.
On the same count and under the same terms, under CMC1 (UniProt Q7Z7K0) stands 0.921 ± 0.041; under UniProt Q8IUI8 and related entries, 1.07 ± 0.098; under “UniProt Q7L2E3-2|H7BXY3 and related entries”, 0.965 ± 0.063.
On to GPAT4 (UniProt Q86UL3), for which the NP40-soluble protein abundance was found to be 1.01 ± 0.075.

The same assay, now with this note: concentration: 0.5mM.
For the target UniProt Q7KZN9 and related entries, the NP40-soluble protein abundance was 1.03 ± 0.18.
Consider UniProt Q7Z460-4, for which the NP40-soluble protein abundance came out at 1.06 ± 0.029.
On the same count and under the same terms, to UniProt Q6V1X1 and related entries belongs 1.02 ± 0.072.
The same measure, in the same setting: under UniProt Q7L592 stands 1.02 ± 0.067; under UniProt Q7Z7H8 and related entries, 1.04 ± 0.038; under UniProt Q7Z7G8 and related entries, 0.883 ± 0.079.
Same read-out and setting: under UniProt Q7Z3K6 and related entries stands 1.02 ± 0.029.
As for UniProt Q7Z6B0 and related entries, the NP40-soluble protein abundance came to 0.994 ± 0.036.
Still for that read-out and setting: to CDR2L (UniProt Q86X02) belongs 0.965 ± 0.088; to TMEM65 (UniProt Q6PI78), 1.02 ± 0.051.
For the target ISCA2 (UniProt Q86U28), the NP40-soluble protein abundance stood at 0.996 ± 0.056.
For CACUL1 (UniProt Q86Y37), the NP40-soluble protein abundance came out at 0.974 ± 0.029.
The same measure, in the same setting: under UniProt Q8IU85 and related entries stands 1.11 ± 0.061; under UniProt Q7Z3E2, 1.01 ± 0.072; under BLOC1S2 (UniProt Q6QNY1), 0.9544 ± 0.0033.
On the same count and under the same terms, under UniProt Q7Z2Z1 and related entries stands 1.02 ± 0.019; under UniProt Q7L0J3 and related entries, 0.971 ± 0.035; under UniProt Q86UW6 and related entries, 1.062 ± 0.0076.
The same measure, in the same setting: to UBE2Q1 (UniProt Q7Z7E8) belongs 1.01 ± 0.024; to NT5DC3 (UniProt Q86UY8), 0.96 ± 0.14; to SETD3 (UniProt Q86TU7), 1.05 ± 0.045.
For the target FASTKD5 (UniProt Q7L8L6), the NP40-soluble protein abundance was 0.961 ± 0.025.
For the target UniProt Q7Z422 and related entries, the NP40-soluble protein abundance was determined as 0.837 ± 0.11.
Still for that read-out and setting: to “UniProt Q6PJT7-3|Q6PJT7-5|Q6PJT7-9|Q6PJT7” belongs 1.16 ± 0.047; to UniProt Q7Z2W9 and related entries, 1.03 ± 0.19.
Same read-out and setting: under UniProt Q86UV5 and related entries stands 1.04 ± 0.044.
Take UniProt Q8IV53 and related entries: the NP40-soluble protein abundance was determined as 0.979 ± 0.036.
On the same count and under the same terms, to METTL3 (UniProt Q86U44) belongs 1.04 ± 0.049.
Regarding DHRS11 (UniProt Q6UWP2), the NP40-soluble protein abundance is 0.969 ± 0.036.
Take NUDT18 (UniProt Q6ZVK8): the NP40-soluble protein abundance was found to be 0.987 ± 0.096.
On the same count and under the same terms, under TSPYL5 (UniProt Q86VY4) stands 0.986 ± 0.038; under UniProt Q6PJG6, 0.981 ± 0.037.
Regarding UniProt Q6PHR2 and related entries, the NP40-soluble protein abundance is 1.09 ± 0.039.
Still for that read-out and setting: under UniProt Q86VN1 and related entries stands 1.01 ± 0.061.
As for CMC1 (UniProt Q7Z7K0), the NP40-soluble protein abundance amounted to 0.889 ± 0.1.
As to UniProt Q8IUI8 and related entries, the NP40-soluble protein abundance came out at 1.05 ± 0.084.
On to “UniProt Q7L2E3-2|H7BXY3 and related entries”, for which the NP40-soluble protein abundance came to 0.874 ± 0.088.
On the same count and under the same terms, under GPAT4 (UniProt Q86UL3) stands 0.994 ± 0.049.

The values above are taken from the supplement of paper PMC6411743.
